Source: the supplement of paper PMC6418307
Single values of this set are uncertain. Peptide text beside a SMILES is read from it. * marks the point of attachment. Cbz = O=C(OCc1ccccc1)*

System: primary mouse cortical neurons
Test: cell health score (luciferase spike-in reads / total reads per well) (fraction); higher = fewer cellular reads, worse cell health / toxicity
Conditions: treatment time 24 h
[1] = 0.01 µM, sex of neuron culture: Female
[2] = 0.01 µM, sex of neuron culture: Male
[3] = 0.1 µM, sex of neuron culture: Female
[4] = 0.1 µM, sex of neuron culture: Male
[5] = 1 µM, sex of neuron culture: Female
[6] = 1 µM, sex of neuron culture: Male
[7] = 10 µM, sex of neuron culture: Female
[8] = 10 µM, sex of neuron culture: Male

CCCCCCC(C)OC(=O)COc1nc(F)c(Cl)c(N)c1Cl (stereo not given) [Fluroxypyr-meptyl]
cell health score [1]: 0.000569 | cell health score [2]: 0.000954 | cell health score [3]: 0.000862 | cell health score [4]: 0.000752 | cell health score [5]: 0.000827 | cell health score [6]: 0.000634 | cell health score [7]: 0.00106 | cell health score [8]: 0.000666

CCC(CC)Nc1c([N+](=O)[O-])cc(C)c(C)c1[N+](=O)[O-] [Pendimethalin]
cell health score [1]: 0.000656 | cell health score [2]: 0.000816 | cell health score [3]: 0.000919 | cell health score [4]: 0.00104 | cell health score [5]: 0.000564 | cell health score [6]: 0.000827 | cell health score [7]: 0.00134 | cell health score [8]: 0.000668

COC(=O)CSc1cc(/N=c2\sc(=O)n3n2CCCC3)c(F)cc1Cl [Fluthiacet-methyl]
cell health score [1]: 0.000597 | cell health score [2]: 0.00074 | cell health score [3]: 0.00101 | cell health score [4]: 0.000842 | cell health score [5]: 0.000847 | cell health score [6]: 0.000621 | cell health score [7]: 0.00157 | cell health score [8]: 0.000574

C[C@@H]1[C@@H](c2ccc(Cl)cc2)SC(=O)N1C(=O)NC1CCCCC1 [Hexythiazox]
cell health score [1]: 0.000395 | cell health score [2]: 0.000923 | cell health score [3]: 0.00102 | cell health score [4]: 0.000721 | cell health score [5]: 0.000962 | cell health score [6]: 0.000634 | cell health score [7]: 0.00104 | cell health score [8]: 0.00106

O=C(O)c1nc(Cl)ccc1Cl [Clopyralid-olamine]
cell health score [1]: 0.000762 | cell health score [2]: 0.000937 | cell health score [3]: 0.00159 | cell health score [4]: 0.00083 | cell health score [5]: 0.000564 | cell health score [6]: 0.000512 | cell health score [7]: 0.00119 | cell health score [8]: 0.000501

CCN(Cc1c(F)cccc1Cl)c1c([N+](=O)[O-])cc(C(F)(F)F)cc1[N+](=O)[O-] [Flumetralin]
cell health score [1]: 0.000474 | cell health score [2]: 0.000652 | cell health score [3]: 0.000663 | cell health score [4]: 0.00095 | cell health score [5]: 0.000923 | cell health score [6]: 0.000639 | cell health score [7]: 0.00125 | cell health score [8]: 0.000639

C[Si](Cn1cncn1)(c1ccc(F)cc1)c1ccc(F)cc1 [Flusilazole]
cell health score [1]: 0.000737 | cell health score [2]: 0.000674 | cell health score [3]: 0.000935 | cell health score [4]: 0.000825 | cell health score [5]: 0.000467 | cell health score [6]: 0.000432 | cell health score [7]: 0.00102 | cell health score [8]: 0.000576

COCC(=O)N(c1c(C)cccc1C)C(C)C(=O)OC (stereo not given) [Metalaxyl]
cell health score [1]: 0.000644 | cell health score [2]: 0.000678 | cell health score [3]: 0.000779 | cell health score [4]: 0.000781 | cell health score [5]: 0.00111 | cell health score [6]: 0.000725 | cell health score [7]: 0.00128 | cell health score [8]: 0.000568

CNC(=O)Oc1ccccc1OC(C)C [Propoxur]
cell health score [1]: 0.000511 | cell health score [2]: 0.000672 | cell health score [3]: 0.00128 | cell health score [4]: 0.000769 | cell health score [5]: 0.000991 | cell health score [6]: 0.000989 | cell health score [7]: 0.00091 | cell health score [8]: 0.000861

COP(=O)(OC)OC(Br)C(Cl)(Cl)Br (stereo not given) [Naled]
cell health score [1]: 0.000448 | cell health score [2]: 0.000712 | cell health score [3]: 0.000827 | cell health score [4]: 0.00088 | cell health score [5]: 0.00114 | cell health score [6]: 0.000686 | cell health score [7]: 0.00119 | cell health score [8]: 0.000587

Oc1ccccc1-c1ccccc1 [2-Phenylphenol]
cell health score [1]: 0.000403 | cell health score [2]: 0.00115 | cell health score [3]: 0.000641 | cell health score [4]: 0.000947 | cell health score [5]: 0.001 | cell health score [6]: 0.000675 | cell health score [7]: 0.000998 | cell health score [8]: 0.000575

Cc1nn(-c2cc(NS(C)(=O)=O)c(Cl)cc2Cl)c(=O)n1C(F)F [Sulfentrazone]
cell health score [1]: 0.000594 | cell health score [2]: 0.000987 | cell health score [3]: 0.0011 | cell health score [4]: 0.000808 | cell health score [5]: 0.00127 | cell health score [6]: 0.000601 | cell health score [7]: 0.00115 | cell health score [8]: 0.000851

Cc1ccccc1CO[C@@H]1C[C@@]2(C(C)C)CCC1(C)O2 [Cinmethylin]
cell health score [1]: 0.000396 | cell health score [2]: 0.000893 | cell health score [3]: 0.00158 | cell health score [4]: 0.000639 | cell health score [5]: 0.000746 | cell health score [6]: 0.00069 | cell health score [7]: 0.00109 | cell health score [8]: 0.000945

CC(C)N1C(=O)N(c2ccccc2)CS/C1=N\C(C)(C)C [Buprofezin]
cell health score [1]: 0.000516 | cell health score [2]: 0.00068 | cell health score [3]: 0.000737 | cell health score [4]: 0.000901 | cell health score [5]: 0.00107 | cell health score [6]: 0.00108 | cell health score [7]: 0.00106 | cell health score [8]: 0.000783

CC[C@H](C)[C@H]1O[C@]2(C=C[C@@H]1C)C[C@@H]1C[C@@H](C/C=C(\C)[C@@H](O[C@H]3C[C@H](OC)[C@@H](O[C@H]4C[C@H](OC)[C@@H](O)[C@H](C)O4)[C@H](C)O3)[C@@H](C)/C=C/C=C3\CO[C@@H]4[C@H](O)C(C)=C[C@@H](C(=O)O1)[C@]34O)O2.CO[C@H]1C[C@H](O[C@H]2[C@H](C)O[C@@H](O[C@@H]3/C(C)=C/C[C@@H]4C[C@@H](C[C@]5(C=C[C@H](C)[C@@H](C(C)C)O5)O4)OC(=O)[C@@H]4C=C(C)[C@@H](O)[C@H]5OC/C(=C\C=C\[C@@H]3C)[C@]54O)C[C@@H]2OC)O[C@@H](C)[C@@H]1O [Abamectin]
cell health score [1]: 0.000875 | cell health score [2]: 0.000722 | cell health score [3]: 0.000724 | cell health score [4]: 0.000884 | cell health score [5]: 0.000702 | cell health score [6]: 0.000858 | cell health score [7]: 0.00712 | cell health score [8]: 0.024

COc1cnc(OC)n2nc(NS(=O)(=O)c3c(OCC(F)F)cccc3C(F)(F)F)nc12 [Penoxsulam]
cell health score [1]: 0.000472 | cell health score [2]: 0.000689 | cell health score [3]: 0.000716 | cell health score [4]: 0.001 | cell health score [5]: 0.000644 | cell health score [6]: 0.000764 | cell health score [7]: 0.000764 | cell health score [8]: 0.000708

CCCCC(CC)CN1C(=O)[C@@H]2[C@H](C1=O)[C@@H]1C=C[C@H]2C1 (stereo not given in full) [MGK-264]
cell health score [1]: 0.000584 | cell health score [2]: 0.000546 | cell health score [3]: 0.000762 | cell health score [4]: 0.000916 | cell health score [5]: 0.000962 | cell health score [6]: 0.000403 | cell health score [7]: 0.0011 | cell health score [8]: 0.000441

Nc1c(Cl)c(F)nc(OCC(=O)O)c1Cl [Fluroxypyr]
cell health score [1]: 0.000544 | cell health score [2]: 0.000648 | cell health score [3]: 0.000815 | cell health score [4]: 0.000819 | cell health score [5]: 0.00103 | cell health score [6]: 0.000863 | cell health score [7]: 0.000906 | cell health score [8]: 0.000434

CCc1c2c(nc3ccc(OC(=O)N4CCC(N5CCCCC5)CC4)cc13)-c1cc3c(c(=O)n1C2)COC(=O)[C@]3(O)CC [Irinotecan]
cell health score [1]: 0.000435 | cell health score [2]: 0.000792 | cell health score [3]: 0.000855 | cell health score [4]: 0.000832 | cell health score [5]: 0.000892 | cell health score [6]: 0.000571 | cell health score [7]: 0.000744 | cell health score [8]: 0.000284

CC(C)C[C@@H](C=O)NC(=O)[C@H](CC(C)C)NC(=O)[C@H](CC(C)C)NC(=O)OCc1ccccc1 [MG132] (Cbz-Leu-Leu-Leu-aldehyde)
cell health score [1]: 0.0019 | cell health score [2]: 0.00164 | cell health score [3]: 0.00396 | cell health score [4]: 0.00224 | cell health score [5]: 0.00394 | cell health score [6]: 0.00138 | cell health score [7]: 0.00517 | cell health score [8]: 0.00334

COC(=O)c1c(C(F)F)nc(C(F)(F)F)c(C2=NCCS2)c1CC(C)C [Thiazopyr]
cell health score [1]: 0.000624 | cell health score [2]: 0.000863 | cell health score [3]: 0.00138 | cell health score [4]: 0.000827 | cell health score [5]: 0.000832 | cell health score [6]: 0.000901 | cell health score [7]: 0.00129 | cell health score [8]: 0.000903

COC(=O)N(OC)c1ccccc1COc1ccn(-c2ccc(Cl)cc2)n1 [Pyraclostrobin]
cell health score [1]: 0.00497 | cell health score [2]: 0.0144 | cell health score [3]: 0.00825 | cell health score [4]: 0.0102 | cell health score [5]: 0.0103 | cell health score [6]: 0.0115 | cell health score [7]: 0.0147 | cell health score [8]: 0.0117

CCOC(=O)C(C)Oc1ccc(Oc2nc3ccc(Cl)cc3o2)cc1 (stereo not given) [Fenoxaprop-ethyl]
cell health score [1]: 0.000615 | cell health score [2]: 0.000813 | cell health score [3]: 0.000903 | cell health score [4]: 0.000816 | cell health score [5]: 0.000701 | cell health score [6]: 0.000667 | cell health score [7]: 0.00058 | cell health score [8]: 0.000509

CNC(=O)CSP(=S)(OC)OC [Dimethoate]
cell health score [1]: 0.000567 | cell health score [2]: 0.000586 | cell health score [3]: 0.000745 | cell health score [4]: 0.000712 | cell health score [5]: 0.000744 | cell health score [6]: 0.00056 | cell health score [7]: 0.000986 | cell health score [8]: 0.000351

Nc1ncn([C@@H]2O[C@H](CO)[C@@H](O)[C@H]2O)c(=O)n1 [5-azacytidine]
cell health score [1]: 0.000594 | cell health score [2]: 0.000761 | cell health score [3]: 0.00115 | cell health score [4]: 0.000779 | cell health score [5]: 0.000646 | cell health score [6]: 0.00088 | cell health score [7]: 0.000819 | cell health score [8]: 0.00194
